Literature values, collected in patent US7393545B2, “Lipstatin derivative—soluble fiber tablets” (priority 1999, dated 2008).
Some entries share one result that the patent states for a list of compounds. Some ranges recur; such a range may be that of the whole group of compounds.

Details: clinically effective doses, in 1 year

CCCCCCCCCCC[C@@H](C[C@@H]1OC(=O)[C@H]1CCCCCC)OC(=O)[C@H](CC(C)C)NC=O [Orlistat, tetrahydrolipostatin]
weight loss, of bodyweight: 5-10%
